# US10100372B2, “Recombinant RSV reporter virus” (priority 2014, dated 2018)
# Tested on: recRSV-L19FD489E-fireSMASh
# Assay type: cell-based, Respiratory Syncytial Virus
structure (smiles),measurement,value
O=c1n(Cc2nc3ccccc3n2CCCCO)c2cnccc2n1C1CC1 [BMS-433771],hit status in co-infection validation assay with pan-resistant RSV-FD489E,did not emerge as hits
